Measured values reported in article PMC4264749, “Phlebotomy Treatment for Elimination of Perfluoroalkyl Acids in a Highly Exposed Family: A Retrospective Case-Series” (PLoS ONE, 2014).
This continues a long series; more values of the same kind are listed elsewhere.

Test: Serum PFAA concentrations in family members during intermittent phlebotomy (HPLC-MS/MS)
Type: in vivo, human
Description: After receiving informed consent, intermittent phlebotomy was undertaken at an overall rate (Table 2) that was equal to or less than the maximum rate of what is done for routine blood donations at the Canadian Blood Services: ∼500 ccs of whole blood every 56 days. Frequency and timing of blood removal was not consistent between family members because of their personal availability, success at each time of venesection, and compliance of each participant. […] Mineral supplementation was discussed and was taken by each participant.
All serum samples were submitted to ALS Laboratories (Edmonton, AB) for quantitative analysis of PFAAs (see Supporting Information, S1 Table). Samples were extracted by solid phase extraction and concentrations of PFHxS, PFOS, and PFOA were determined using high performance liquid chromatography/tandem mass spectrometry. Formic acid (0.1 M) along with a mixture of isotopically labeled PFAAs (Wellington Laboratories, Guelph, Ontario) were added to 1.0 mL of serum. The mixture was vortexed, sonicated, and subjected to solid phase extraction. The extract was concentrated to 100 uL and an instrument performance internal standard was added along with 200 uL of 90% 20 mM aqueous acetic acid/10% methanol. Procedural blanks were run with each set of samples, and method limits of quantification (LOQ) were 0.5 ng/mL for each analyte. For the few PFAA levels that fell below this LOQ (shown as hollow circles in Figs. 1–3), LOQ/√2 (i.e. 0.35 ng/mL) was substituted for purposes of data analysis. PFHxS, PFOS, and PFOA levels in all participating family members were >LOQ throughout the intervention except for 3 PFOS measurements out of 16 total measurements in the 3rd child and one PFOA measurement out of 9 total measurements in the […]. Written informed consent was given by participants (or parents in the case of children) for their clinical records to be used in this study.

[1] = 3rd Child, sampling date 2009.10.11
[2] = 3rd Child, sampling date 2009.12.16
[3] = 3rd Child, sampling date 2009.6.1
[4] = 3rd Child, sampling date 2009.7.4
[5] = 3rd Child, sampling date 2009.8.7
[6] = 3rd Child, sampling date 2009.9.7
[7] = 3rd Child, sampling date 2010.1.24
[8] = 3rd Child, sampling date 2013.10.27
[9] = 3rd Child, sampling date 2013.5.5
[10] = 3rd Child, sampling date 2013.7.25
[11] = 3rd Child, sampling date 2013.9.8
[12] = 4th Child, sampling date 2009.10.25
[13] = 4th Child, sampling date 2009.10.4
[14] = 4th Child, sampling date 2009.12.22
[15] = 4th Child, sampling date 2009.6.2
[16] = 4th Child, sampling date 2009.6.26
[17] = 4th Child, sampling date 2009.8.7
[18] = 4th Child, sampling date 2009.9.2
[19] = 4th Child, sampling date 2010.1.24
[20] = 4th Child, sampling date 2010.4.29
[21] = 4th Child, sampling date 2011.10.2
[22] = 4th Child, sampling date 2011.11.29
[23] = 4th Child, sampling date 2011.5.23
[24] = 4th Child, sampling date 2011.6.18
[25] = 4th Child, sampling date 2012.1.8
[26] = 4th Child, sampling date 2012.12.23
[27] = 4th Child, sampling date 2012.3.5
[28] = 4th Child, sampling date 2012.5.22
[29] = 4th Child, sampling date 2013.10.27
[30] = 4th Child, sampling date 2013.3.30
[31] = 4th Child, sampling date 2013.5.25
[32] = 4th Child, sampling date 2013.7.23
[33] = 4th Child, sampling date 2013.9.8

Row | SMILES | Serum concentration [12] | Serum concentration [13] | Serum concentration [14] | Serum concentration [15] | Serum concentration [16] | Serum concentration [17] | Serum concentration [18] | Serum concentration [20] | Serum concentration [21] | Serum concentration [22] | Serum concentration [23] | Serum concentration [24] | Serum concentration [25] | Serum concentration [26] | Serum concentration [27] | Serum concentration [28] | Serum concentration [29] | Serum concentration [30] | Serum concentration [31] | Serum concentration [32] | also measured
1 | O=S(=O)(O)C(F)(F)C(F)(F)C(F)(F)C(F)(F)C(F)(F)C(F)(F)F [PFHxS, Perfluorohexane sulfonate] | 70.5 ng/mL | 69.6 ng/mL | 46.5 ng/mL | 167 ng/mL | 156 ng/mL | 127 ng/mL | 101 ng/mL | 69.6 ng/mL | 70.2 ng/mL | 23.3 ng/mL | 74.4 ng/mL | 89 ng/mL | 42 ng/mL | 92.2 ng/mL | 45.6 ng/mL | 47.7 ng/mL | 29.9 ng/mL | 47.8 ng/mL | 33.3 ng/mL | 26.9 ng/mL | Serum concentration [1]: 207.0 ng/mL; Serum concentration [2]: 65.1 ng/mL; Serum concentration [3]: 293.0 ng/mL; Serum concentration [4]: 271.0 ng/mL; Serum concentration [5]: 224.0 ng/mL; Serum concentration [6]: 215.0 ng/mL; Serum concentration [7]: 92.1 ng/mL; Serum concentration [8]: 48.3 ng/mL; Serum concentration (3rd Child, sampling date 2013.2.5): 66.6 ng/mL; Serum concentration (3rd Child, sampling date 2013.3.30): 67.4 ng/mL; Serum concentration [9]: 44.1 ng/mL; Serum concentration [10]: 34.8 ng/mL; Serum concentration [11]: 60.6 ng/mL; Serum concentration [19]: 30.6 ng/mL; Serum concentration [33]: 31.2 ng/mL
2 | O=S(=O)(O)C(F)(F)C(F)(F)C(F)(F)C(F)(F)C(F)(F)C(F)(F)C(F)(F)C(F)(F)F [PFOS, perfluoroctane sulfonate] | 29.9 ng/mL | 45.3 ng/mL | 37.5 ng/mL | 62.4 ng/mL | 42.3 ng/mL | 52.5 ng/mL | 54.0 ng/mL | 40.9 ng/mL | 1.2 ng/mL | 4.0 ng/mL | 4.9 ng/mL | 4.0 ng/mL | 9.2 ng/mL | 3.7 ng/mL | 11.3 ng/mL | 11.7 ng/mL | 5.0 ng/mL | 3.1 ng/mL | 5.6 ng/mL | 4.4 ng/mL | Serum concentration [33]: 4.7 ng/mL
3 | O=C(O)C(F)(F)C(F)(F)C(F)(F)C(F)(F)C(F)(F)C(F)(F)C(F)(F)F [PFOA, perfluorooctanoic acid] | 2.5 ng/mL | 4.1 ng/mL | 4.0 ng/mL | 6.8 ng/mL | 6.0 ng/mL | 4.7 ng/mL | 5.6 ng/mL | 3.5 ng/mL | 2.2 ng/mL | 1.6 ng/mL | 2.4 ng/mL | 2.2 ng/mL | 2.0 ng/mL | 1.5 ng/mL | 2.4 ng/mL | 2.3 ng/mL | 1.3 ng/mL | 1.7 ng/mL | 1.3 ng/mL | 1.1 ng/mL | Serum concentration [1]: 6.1 ng/mL; Serum concentration [2]: 3.5 ng/mL; Serum concentration [3]: 8.2 ng/mL; Serum concentration [4]: 7.7 ng/mL; Serum concentration [5]: 6.9 ng/mL; Serum concentration [6]: 7.8 ng/mL; Serum concentration [7]: 5.1 ng/mL; Serum concentration [8]: 1.8 ng/mL; Serum concentration [9]: 1.7 ng/mL; Serum concentration [10]: 1.7 ng/mL; Serum concentration [11]: 2.0 ng/mL; Serum concentration [19]: 2.0 ng/mL; Serum concentration [33]: 1.3 ng/mL
